The record followed here is paper PMC9829102.

The target in this test is Aplysia kinesin heavy chain 1 (Aplysia californica (endogenous in CNS)). Description: affinity purification with mass spectrometry; endogenous ApKHC1 complexes immunoprecipitated with anti-ApKHC1 antibody and protein A/G agarose beads from Aplysia CNS lysate (50 mM Tris pH 7.5, 1 mM EDTA, 150 mM NaCl, 1 mM DTT, 0.5% NP-40, 4°C); eluted in 5% SDS, TMT 10-plex LC-MS/MS; animals untrained (control), STS 1 h, LTS 1 h or LTS 3 h.

These are yes or no findings as the source states them, for the method shown. Binding seen in cells or lysates may run through a third protein. A yes stands for co-enrichment or nearness to the bait. Other partners may have been found.

B1: synaptobrevin (protein, UniProt P35589 1-180)
chain: MSAGPGGPQGGMQPPREQSKRLQQTQAQVDEVVDIMRVNVEKVLDRDQKISQLDDRAEALQAGASQFEASAGKLKRKYWWKNCKMMLILGAIIGVIVIIIIVWVVTSQDSGGDDSGSKTPATAGTSPKPVESGVQGGGGRQQRPHSQLVERRNVLRRTEDHIGCRPHIHSFIHIFMICLV
Regarding B1, the binding entry is reported as “binds”.

B2: uncharacterized protein LOC101861750 (protein, UniProt A0ABM0JXA1 1-652)
chain: MTPHGSVGLLLLLSVVSMATSQAVDFTRLPEATGESVVRATVSQIRESCAFQNDYLYLKRLAFVSSEYGEASGSFRPGFHGGIWQISREDYKLTLYMDSTFYDLIRKKLNIEWRKTKWSDLRKPIYSGIAAMLTLERLSPIPRNAKGQAKFFQKNLSGNATLFLDLISQTQRSCDTEELDMAFVLDGSASMTSSEFKESKKFTSLVLRNFYVEPDFVRVSVSTFSDTVTEYIRFLQFITTRSVRKAVFSIRRENGHTNTALALNYLRRFTFTTQGKSRKEAAKIAIIQTDGNSNSRIKTIEAASRLRAAGVTVFAIGIGDGIDSVELEGIASHPTCTHVRKIAVFSELKSLVDDVKDAVCKTNIFQNFNTENKYKCTREKTVMFDVISETTIVARPELGNLNIFGSFKITEPNSAFGDFSSIARAEKPLVIYLDKSDQTLYLSFSANVTHEDHCSSTFIVKAVDSNAMRKTAASTVCITDGHTRKCTDIDYVKSGDYQKVIAPSSSSATRACVEGLVGYQPHPNTTTKYVYCVSKTEAYVVTCPNGFAYLSSQQDCVVPASMDNDTVCRVCSSENWLLGLRNFPVAAKSRLYVNCTAVETCVIKDCGDNLQYYPNDQKCAEASLGSSTWSLHRSQAYIVVVLVLLFLRKLIC
For the molecule B2, the binding result was “binds”.
